Reference: the supplement of paper PMC9254222
Shown are results outside the selection of highest values, which stands elsewhere.

Tested on: HEK293T (UBE3A T485A transfected, BAR Wnt reporter)
Assay: Renilla luciferase signal (cell health) relative to plate median (fold (linear ratio)); higher = higher Renilla signal
Settings: 24 h
In short: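 HEK293T cells were seeded at 4500 cells/well in white 384-well plates and grown in DMEM with 10% FBS at 37°C and 5% CO2. The cells were transfected using Fugene 6 with a BAR firefly luciferase Wnt reporter, TK-Renilla and an expression plasmid, and four hours later robots added the chemicals at 0.01–100 uM for 24 h before a Dual-Glo luciferase readout. Wnt activity was taken as the firefly/Renilla ratio and cell health as raw Renilla, each median-centred per plate. Values are averages of four biological replicates.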

Row | SMILES | Renilla luciferase signal (concentration: 0.1 uM) | Renilla luciferase signal (concentration: 1 uM) | Renilla luciferase signal (concentration: 10 uM) | Renilla luciferase signal (concentration: 100 uM)
1 | CCCCCCCC1CCC(=O)O1 (stereo not drawn) [5-Heptyldihydro-2(3H)-furanone] | 1.08 | 1.01 | 1.05 | 1.02
2 | CS(=O)(=O)c1ccc([C@@H](CC2CCCC2)C(=O)Nc2cnccn2)cc1Cl | 1.04 | 0.989 | 1.01 | 0.195
